The target in assay [1] is T1, Halo-tagged BRMS1 wild-type (BRMS1^WT), Breast Cancer Metastasis Suppressor 1.
T1 sequence: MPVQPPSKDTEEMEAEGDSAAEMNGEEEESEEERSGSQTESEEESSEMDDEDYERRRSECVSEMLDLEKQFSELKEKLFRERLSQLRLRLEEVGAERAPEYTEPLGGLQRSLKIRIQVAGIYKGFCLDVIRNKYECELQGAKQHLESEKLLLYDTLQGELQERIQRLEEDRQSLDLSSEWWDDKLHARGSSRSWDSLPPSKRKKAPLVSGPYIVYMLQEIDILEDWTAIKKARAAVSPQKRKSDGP
Put plainly: affinity purification with mass spectrometry; Halo-BRMS1 constructs transfected in HEK293T; lysate (50 mM Tris-HCl pH 7.5, 150 mM NaCl, 1% Triton X-100, 0.1% sodium deoxycholate) incubated overnight at 4°C with Magne HaloTag beads; TEV elution; MudPIT; Halo tag alone as negative control; three replicates a bait; QSPEC and TopS scoring.

Chains of the proteins cited; added tags and fusions are not shown.
UniProt P42771: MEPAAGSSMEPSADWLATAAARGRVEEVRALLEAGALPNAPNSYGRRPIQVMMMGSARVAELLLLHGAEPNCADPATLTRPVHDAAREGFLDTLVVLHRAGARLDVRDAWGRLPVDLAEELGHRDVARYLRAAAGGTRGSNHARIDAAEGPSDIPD

The target in assay [2] is T2, SIN3A (human (endogenous in HEK293T, MCF-10A and MDA-MB-231)) (UniProt Q96ST3).
T2 sequence: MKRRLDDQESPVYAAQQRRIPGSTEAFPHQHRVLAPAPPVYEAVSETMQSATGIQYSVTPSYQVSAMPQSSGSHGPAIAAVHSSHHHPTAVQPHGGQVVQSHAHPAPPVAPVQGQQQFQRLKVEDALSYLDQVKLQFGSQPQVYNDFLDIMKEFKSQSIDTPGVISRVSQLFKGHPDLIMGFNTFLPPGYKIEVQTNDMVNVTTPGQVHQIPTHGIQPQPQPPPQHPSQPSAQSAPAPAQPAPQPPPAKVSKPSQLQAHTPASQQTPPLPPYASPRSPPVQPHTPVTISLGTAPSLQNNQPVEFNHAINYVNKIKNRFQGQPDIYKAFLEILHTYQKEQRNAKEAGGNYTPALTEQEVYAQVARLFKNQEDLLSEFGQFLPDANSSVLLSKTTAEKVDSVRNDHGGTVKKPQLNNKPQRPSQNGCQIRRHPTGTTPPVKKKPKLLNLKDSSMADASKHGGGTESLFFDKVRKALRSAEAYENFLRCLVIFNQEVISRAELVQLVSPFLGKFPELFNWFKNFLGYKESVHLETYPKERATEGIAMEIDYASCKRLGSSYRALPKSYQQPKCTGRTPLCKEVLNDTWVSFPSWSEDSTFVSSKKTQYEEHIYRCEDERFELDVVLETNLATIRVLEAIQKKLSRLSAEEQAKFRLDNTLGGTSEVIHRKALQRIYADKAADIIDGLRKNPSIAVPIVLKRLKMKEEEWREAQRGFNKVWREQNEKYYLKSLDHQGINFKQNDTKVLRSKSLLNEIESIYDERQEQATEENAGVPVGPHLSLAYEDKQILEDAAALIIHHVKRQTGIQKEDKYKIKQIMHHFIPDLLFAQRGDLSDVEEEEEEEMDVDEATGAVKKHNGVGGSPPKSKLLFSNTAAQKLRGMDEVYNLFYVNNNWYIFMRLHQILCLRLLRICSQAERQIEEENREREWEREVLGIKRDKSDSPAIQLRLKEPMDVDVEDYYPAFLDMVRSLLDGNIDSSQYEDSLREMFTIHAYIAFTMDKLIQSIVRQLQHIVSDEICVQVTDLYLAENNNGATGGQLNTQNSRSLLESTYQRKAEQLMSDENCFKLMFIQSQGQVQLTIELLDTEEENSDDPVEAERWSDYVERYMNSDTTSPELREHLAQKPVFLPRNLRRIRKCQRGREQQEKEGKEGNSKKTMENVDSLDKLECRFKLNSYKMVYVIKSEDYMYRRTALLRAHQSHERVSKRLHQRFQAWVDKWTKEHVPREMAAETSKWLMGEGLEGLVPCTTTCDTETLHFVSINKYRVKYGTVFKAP
Put plainly: affinity purification with mass spectrometry; co-IP of endogenous SIN3A with a polyclonal antibody from nuclear lysate of MCF-10A cells; gel, in-gel digestion, MALDI-TOF.

Assay [3] deals with T2, SIN3A (human (endogenous in HEK293T, MCF-10A and MDA-MB-231)). Briefly: condition: only in nuclear lysate of MDA-MB-231 cells; affinity purification with mass spectrometry; co-IP of endogenous SIN3A with a polyclonal antibody from nuclear lysate of MDA-MB-231 cells; gel, in-gel digestion, MALDI-TOF.

Results are given in words; binding and its absence hold for the method and conditions named. In cells and extracts the contact can be indirect. A yes stands for co-enrichment or nearness to the bait. Other partners may have been found. For some of these results: A no says only that the protein was not detected with the bait. For some of these results: Sequences can lack the tags named with a protein.

As to “Cyclin Dependent Kinase Inhibitor 2A (CDKN2A) (from UniProt P42771 1-156)”, the binding entry in assay [1] is recorded as “binds”.

B1: SAP30 (protein, UniProt O75446 1-220)
chain: MNGFTPDEMSRGGDAAAAVAAVVAAAAAAASAGNGTGAGTGAEVPGAGAVSAAGPPGAAGPGPGQLCCLREDGERCGRAAGNASFSKRIQKSISQKKVKIELDKSARHLYICDYHKNLIQSVRNRRKRKGSDDDGGDSPVQDIDTPEVDLYQLQVNTLRRYKRHFKLPTRPGLNKAQLVEIVGCHFRSIPVNEKDTLTYFIYSVKNDKNKSDLKVDSGVH
Consider B1, for which the binding result is listed as “binds” in assay [2] and “no binding” in assay [3].

B2: SIN3B (protein, UniProt O75182 1-1162)
chain: MAHAGGGSGGSGAGGPAGRGLSGARWGRSGSAGHEKLPVHVEDALTYLDQVKIRFGSDPATYNGFLEIMKEFKSQSIDTPGVIRRVSQLFHEHPDLIVGFNAFLPLGYRIDIPKNGKLNIQSPLTSQENSHNHGDGAEDFKQQVPYKEDKPQVPLESDSVEFNNAISYVNKIKTRFLDHPEIYRSFLEILHTYQKEQLNTRGRPFRGMSEEEVFTEVANLFRGQEDLLSEFGQFLPEAKRSLFTGNGPCEMHSVQKNEHDKTPEHSRKRSRPSLLRPVSAPAKKKMKLRGTKDLSIAAVGKYGTLQEFSFFDKVRRVLKSQEVYENFLRCIALFNQELVSGSELLQLVSPFLGKFPELFAQFKSFLGVKELSFAPPMSDRSGDGISREIDYASCKRIGSSYRALPKTYQQPKCSGRTAICKELDHWTLLQGSWTDDYCMSKFKNTCWIPGYSAGVLNDTWVSFPSWSEDSTFVSSKKTPYEEQLHRCEDERFELDVVLETNLATIRVLESVQKKLSRMAPEDQEKFRLDDSLGGTSEVIQRRAIYRIYGDKAPEIIESLKKNPVTAVPVVLKRLKAKEEEWREAQQGFNKIWREQYEKAYLKSLDHQAVNFKQNDTKALRSKSLLNEIESVYDEHQEQHSEGRSAPSSEPHLIFVYEDRQILEDAAALISYYVKRQPAIQKEDQGTIHQLLHQFVPSLFFSQQLDLGASEESADEDRDSPQGQTTDPSERKKPAPGPHSSPPEEKGAFGDAPATEQPPLPPPAPHKPLDDVYSLFFANNNWYFFLRLHQTLCSRLLKIYRQAQKQLLEYRTEKEREKLLCEGRREKGSDPAMELRLKQPSEVELEEYYPAFLDMVRSLLEGSIDPTQYEDTLREMFTIHAYVGFTMDKLVQNIARQLHHLVSDDVCLKVVELYLNEKKRGAAGGNLSSRCVRAARETSYQWKAERCMADENCFKVMFLQRKGQVIMTIELLDTEEAQTEDPVEVQHLARYVEQYVGTEGASSSPTEGFLLKPVFLQRNLKKFRRRWQSEQARALRGEARSSWKRLVGVESACDVDCRFKLSTHKMVFIVNSEDYMYRRGTLCRAKQVQPLVLLRHHQHFEEWHSRWLEDNVTVEAASLVQDWLMGEEDEDMVPCKTLCETVHVHGLPVTRYRVQYSRRPASP
For B2, the binding result in assay [2] is “binds”; in assay [3], “no binding”.

B3: BRMS1L (protein, UniProt Q5PSV4 1-323)
chain: MPVHSRGDKKETNHHDEMEVDYAENEGSSSEDEDTESSSVSEDGDSSEMDDEDCERRRMECLDEMSNLEKQFTDLKDQLYKERLSQVDAKLQEVIAGKAPEYLEPLATLQENMQIRTKVAGIYRELCLESVKNKYECEIQASRQHCESEKLLLYDTVQSELEEKIRRLEEDRHSIDITSELWNDELQSRKKRKDPFSPDKKKPVVVSGPYIVYMLQDLDILEDWTTIRKAMATLGPHRVKTEPPVKLEKHLHSARSEEGRLYYDGEWYIRGQTICIDKKDECPTSAVITTINHDEVWFKRPDGSKSKLYISQLQKGKYSIKHS
Regarding B3, the values for the binding result in assay [2] and in assay [3] were “binds” and “no binding”, respectively.

Source of the values: article PMC8598058.
